From patent publication EP4556018A1 (OSAKA UNIVERSITY, dated 2025)
These are yes or no findings as the source states them, for the method shown. Some binding calls cover weakened binding; strength is not graded here.

By UniProt entry, the sequences of proteins in these tests, tags left out. Where a name states a change or a piece, a line headed by the entry shows the natural chain unless it says otherwise. Chains listed by the source or under a name are the forms on record and can include a tag or linker.
UniProt Q6PDQ2: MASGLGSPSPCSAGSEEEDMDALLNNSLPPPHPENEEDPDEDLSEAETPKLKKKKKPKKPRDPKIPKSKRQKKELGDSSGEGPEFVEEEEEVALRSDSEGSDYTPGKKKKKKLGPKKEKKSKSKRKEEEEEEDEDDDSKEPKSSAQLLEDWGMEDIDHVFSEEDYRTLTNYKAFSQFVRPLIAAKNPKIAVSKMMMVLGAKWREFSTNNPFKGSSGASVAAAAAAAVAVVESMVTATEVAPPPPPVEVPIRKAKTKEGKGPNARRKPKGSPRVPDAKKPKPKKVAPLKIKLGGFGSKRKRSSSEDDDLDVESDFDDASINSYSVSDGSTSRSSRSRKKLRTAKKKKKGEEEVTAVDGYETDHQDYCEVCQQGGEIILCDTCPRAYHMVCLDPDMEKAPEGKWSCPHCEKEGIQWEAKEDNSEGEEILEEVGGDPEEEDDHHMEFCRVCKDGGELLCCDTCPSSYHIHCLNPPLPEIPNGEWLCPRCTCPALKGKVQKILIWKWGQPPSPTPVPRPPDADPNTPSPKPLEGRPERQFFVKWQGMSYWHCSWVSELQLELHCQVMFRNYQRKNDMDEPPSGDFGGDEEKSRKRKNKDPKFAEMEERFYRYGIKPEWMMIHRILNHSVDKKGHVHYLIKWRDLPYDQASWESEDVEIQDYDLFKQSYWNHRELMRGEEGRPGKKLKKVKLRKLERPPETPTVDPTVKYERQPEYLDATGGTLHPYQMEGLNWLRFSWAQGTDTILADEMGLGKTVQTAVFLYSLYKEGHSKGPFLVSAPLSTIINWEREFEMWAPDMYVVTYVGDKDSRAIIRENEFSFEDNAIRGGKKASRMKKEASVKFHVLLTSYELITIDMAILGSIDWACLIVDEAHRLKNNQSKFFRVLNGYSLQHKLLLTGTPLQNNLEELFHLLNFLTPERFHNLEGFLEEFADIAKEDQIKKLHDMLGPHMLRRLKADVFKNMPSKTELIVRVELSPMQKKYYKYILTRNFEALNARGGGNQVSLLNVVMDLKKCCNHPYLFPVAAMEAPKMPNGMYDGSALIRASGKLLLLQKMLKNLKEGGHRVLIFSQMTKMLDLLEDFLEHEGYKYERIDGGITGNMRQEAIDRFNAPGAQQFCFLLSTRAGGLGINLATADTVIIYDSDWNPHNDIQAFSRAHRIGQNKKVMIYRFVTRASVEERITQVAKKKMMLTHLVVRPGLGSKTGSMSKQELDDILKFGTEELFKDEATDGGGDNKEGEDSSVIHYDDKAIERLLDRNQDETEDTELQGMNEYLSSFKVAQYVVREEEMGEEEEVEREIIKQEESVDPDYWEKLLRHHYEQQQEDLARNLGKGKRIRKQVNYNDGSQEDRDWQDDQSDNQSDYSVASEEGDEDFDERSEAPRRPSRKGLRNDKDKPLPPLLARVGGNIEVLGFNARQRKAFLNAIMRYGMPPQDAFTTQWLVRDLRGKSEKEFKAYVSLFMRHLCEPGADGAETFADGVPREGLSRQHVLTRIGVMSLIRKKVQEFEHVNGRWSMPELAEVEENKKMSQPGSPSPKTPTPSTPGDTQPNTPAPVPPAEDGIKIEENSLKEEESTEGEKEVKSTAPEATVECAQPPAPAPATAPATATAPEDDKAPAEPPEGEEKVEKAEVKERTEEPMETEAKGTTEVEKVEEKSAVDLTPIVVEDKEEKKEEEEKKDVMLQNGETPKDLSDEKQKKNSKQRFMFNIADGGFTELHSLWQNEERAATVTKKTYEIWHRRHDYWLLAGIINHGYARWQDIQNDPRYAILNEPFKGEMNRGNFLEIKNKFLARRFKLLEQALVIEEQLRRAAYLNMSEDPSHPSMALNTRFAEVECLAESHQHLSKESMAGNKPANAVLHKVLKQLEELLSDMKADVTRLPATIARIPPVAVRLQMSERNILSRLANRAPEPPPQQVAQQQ
UniProt Q03267: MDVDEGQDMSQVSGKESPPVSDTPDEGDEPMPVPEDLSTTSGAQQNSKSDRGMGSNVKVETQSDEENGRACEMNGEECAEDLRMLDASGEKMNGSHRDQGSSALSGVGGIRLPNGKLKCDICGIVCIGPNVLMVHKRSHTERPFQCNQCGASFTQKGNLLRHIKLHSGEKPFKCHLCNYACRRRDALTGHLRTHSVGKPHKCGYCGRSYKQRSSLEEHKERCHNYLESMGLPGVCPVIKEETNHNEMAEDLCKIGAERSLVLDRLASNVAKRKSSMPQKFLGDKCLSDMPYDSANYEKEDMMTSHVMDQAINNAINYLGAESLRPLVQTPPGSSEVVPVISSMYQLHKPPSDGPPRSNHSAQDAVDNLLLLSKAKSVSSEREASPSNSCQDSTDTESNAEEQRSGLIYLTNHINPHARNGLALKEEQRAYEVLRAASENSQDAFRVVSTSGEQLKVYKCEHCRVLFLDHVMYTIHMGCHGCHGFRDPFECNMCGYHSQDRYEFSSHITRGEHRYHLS
Ikzf1ΔE5 expressed in Treg cells of Foxp3^CreIkE5^f/f mice (Q03267, form named): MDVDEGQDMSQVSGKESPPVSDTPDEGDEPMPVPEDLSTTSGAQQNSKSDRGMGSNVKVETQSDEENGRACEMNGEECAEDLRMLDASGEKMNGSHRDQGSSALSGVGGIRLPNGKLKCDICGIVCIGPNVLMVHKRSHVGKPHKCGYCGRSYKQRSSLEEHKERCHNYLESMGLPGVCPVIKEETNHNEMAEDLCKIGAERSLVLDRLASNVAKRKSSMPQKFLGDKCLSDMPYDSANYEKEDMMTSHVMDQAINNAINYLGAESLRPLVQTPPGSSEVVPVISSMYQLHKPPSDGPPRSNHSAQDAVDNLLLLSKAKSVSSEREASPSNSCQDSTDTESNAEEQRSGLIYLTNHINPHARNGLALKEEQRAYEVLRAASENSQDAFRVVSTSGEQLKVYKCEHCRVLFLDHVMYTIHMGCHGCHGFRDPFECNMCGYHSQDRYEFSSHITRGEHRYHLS

Legend:
[1] = molecular target: CHD4 of mouse Treg cells (mouse) (UniProt Q6PDQ2); test: immunoprecipitation with α-Ikzf1 from Ikzf1ΔE5-expressing mouse Treg cells, Simple Western with anti-CHD4
[2] = molecular target: CHD4 of mouse Treg cells (mouse) (UniProt Q6PDQ2); test: immunoprecipitation of Ikzf1 from Ikzf1-expressing mouse Treg cells, Simple Western with anti-CHD4

Substance | binding [1] | binding [2]
Ikzf1ΔE5 expressed in Treg cells of Foxp3^CreIkE5^f/f mice (from UniProt Q03267 1-517) | binds | –
endogenous Ikzf1 of mouse Treg cells (Foxp3^Cre) (from UniProt Q03267 1-517) | – | binds
